Results are given in words; binding and its absence hold for the method and conditions named. Binding seen in cells or lysates may run through a third protein. For some assays here: A result given as binding can be weak or reduced; the word gives no strength.
Assays:
[1] = biological target: T1, Boc (bioregional Cdon-binding protein), endogenous (mouse (endogenous in NIH3T3)) (UniProt Q6AZB0); assay: co-IP; NIH3T3/Cas9 Ptch1 KO cells transfected with mouse Ptch1, recombinant Shh (200 ng/mL) added for 24 h; Shh detected in the immuno-complexes by Western blot; only the binder purified
T1 sequence: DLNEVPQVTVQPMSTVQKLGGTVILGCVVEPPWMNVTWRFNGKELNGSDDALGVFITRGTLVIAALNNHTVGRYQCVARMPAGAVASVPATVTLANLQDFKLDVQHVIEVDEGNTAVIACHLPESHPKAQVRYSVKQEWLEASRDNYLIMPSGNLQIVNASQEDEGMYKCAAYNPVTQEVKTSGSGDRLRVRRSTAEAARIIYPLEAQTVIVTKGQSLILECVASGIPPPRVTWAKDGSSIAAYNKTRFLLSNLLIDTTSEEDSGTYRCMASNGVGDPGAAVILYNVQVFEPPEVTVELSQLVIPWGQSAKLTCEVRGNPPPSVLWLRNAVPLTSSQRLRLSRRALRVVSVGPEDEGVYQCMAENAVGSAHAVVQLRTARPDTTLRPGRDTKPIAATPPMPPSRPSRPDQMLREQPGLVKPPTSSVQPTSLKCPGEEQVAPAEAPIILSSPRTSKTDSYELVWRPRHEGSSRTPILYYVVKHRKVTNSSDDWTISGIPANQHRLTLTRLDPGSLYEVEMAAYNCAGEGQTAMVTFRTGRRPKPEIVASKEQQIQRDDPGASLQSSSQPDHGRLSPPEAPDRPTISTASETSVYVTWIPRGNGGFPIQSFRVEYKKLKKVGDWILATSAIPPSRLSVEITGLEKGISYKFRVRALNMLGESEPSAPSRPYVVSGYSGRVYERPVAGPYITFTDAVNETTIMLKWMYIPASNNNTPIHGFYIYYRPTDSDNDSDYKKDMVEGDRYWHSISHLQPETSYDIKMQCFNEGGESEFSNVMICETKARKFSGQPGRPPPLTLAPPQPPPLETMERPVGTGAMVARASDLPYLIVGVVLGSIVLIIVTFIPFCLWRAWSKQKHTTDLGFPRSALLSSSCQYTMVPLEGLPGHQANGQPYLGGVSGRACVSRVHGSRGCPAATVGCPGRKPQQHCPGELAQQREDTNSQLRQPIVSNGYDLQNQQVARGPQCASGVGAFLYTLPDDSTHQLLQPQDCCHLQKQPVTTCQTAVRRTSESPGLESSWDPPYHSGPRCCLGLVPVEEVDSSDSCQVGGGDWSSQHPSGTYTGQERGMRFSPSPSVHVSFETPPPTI

[2] = biological target: T1, Boc (bioregional Cdon-binding protein), endogenous (mouse (endogenous in NIH3T3)); assay: co-IP; NIH3T3/Cas9 Ptch1 KO cells transfected with mouse Ptch1, recombinant Shh (200 ng/mL) added for 40 min; Shh detected in the immuno-complexes by Western blot; only the binder purified

Substance: recombinant Shh N-terminal peptide (ligand)
- binding [1]: no binding (only after Shh for 24 h)
- binding [2]: binds

Source: article PMC7181751
